PubChem BioAssay AID1224830 | NIAID – 2016
In all, the deposit lists about 18,000 reagents; this is a part drawn at random. In the full data, about 2,900 (16%) got an active call. 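Calls are made per well; low scores hint the gene aids the LPS response, high scores that it dampens it.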 Repeated entries: four replicate wells of each siRNA pool.

Assay: 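Regulators of TLR4 signalling towards TNF-alpha in macrophage-like cells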 (primary screen)
System: human THP-1 monocytic leukaemia cells, TNF dual-luciferase reporter clone, PMA-differentiated to macrophage-like cells
Reagent: siRNA pool against human genes, 50 nM
Duration: LPS for 4 h, given about 3 days after siRNA transfection
Treatment: bacterial LPS (TLR4 ligand), 10 ng/ml
Read-out: 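Ratio of firefly to renilla light, scaled to the plate median and expressed as a robust z-score per replicate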
Reading the numbers: TNF reporter robust z-score: higher = stronger TNF reporter response to LPS
Call rule: 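Each well counts as active if its z-score is over 2.8 or under -1.5; controls are left without a call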

After knock-down of BICD1 [SID315447547], the screen gave TNF reporter robust z-score -0.47; inactive.
Depletion of BICD1 [SID315447547] resulted in: TNF reporter robust z-score -0.68; inactive.
For BICD1 [SID315447547] the deposit lists TNF reporter robust z-score -0.38; inactive.
BICD1 [SID315447547] scored TNF reporter robust z-score -0.28; inactive.
Knock-down of CEP131 [SID315454916] gave: TNF reporter robust z-score -0.15; inactive.
CEP131 [SID315454916] showed TNF reporter robust z-score -0.33; inactive.
For CEP131 [SID315454916] the deposit lists TNF reporter robust z-score 1.39; inactive.
RFX3 [SID315451113] scored TNF reporter robust z-score -0.12; inactive.
For RFX3 [SID315451113], the values are TNF reporter robust z-score 3.43; active.
For RFX3 [SID315451113], the values are TNF reporter robust z-score 0.26; inactive.
With knock-down of RFX3 [SID315451113] the results were TNF reporter robust z-score 0.85; inactive.
NOP2 [SID315450270] scored TNF reporter robust z-score -1.34; inactive.
With knock-down of NOP2 [SID315450270] the results were TNF reporter robust z-score -1.1; inactive.
After knock-down of NOP2 [SID315450270], the record shows TNF reporter robust z-score -0.89; inactive.
Depletion of FUBP3 [SID315452942] came out at: TNF reporter robust z-score 0.28; inactive.
Knock-down of FUBP3 [SID315452942] resulted in: TNF reporter robust z-score 0.11; inactive.
After knock-down of FUBP3 [SID315452942] the results were TNF reporter robust z-score -0.4; inactive.
Knock-down of FUBP3 [SID315452942] gave: TNF reporter robust z-score 0.4; inactive.
With knock-down of OR2K2 [SID315455733] the results were TNF reporter robust z-score 1.62; inactive.
Knock-down of OR2K2 [SID315455733] resulted in: TNF reporter robust z-score 4.65; active.
Silencing of OR2K2 [SID315455733] came out at: TNF reporter robust z-score 3.49; active.
Against OR2K2 [SID315455733], the values are TNF reporter robust z-score 1.61; inactive.
